Structures can show the parent of a compound that is named as a salt. Some entries share one result that the patent states for a list of compounds. Some ranges recur; such a range may be that of the whole group of compounds.
Each compound was assayed against T1, TrkA kinase (Homo sapiens, UniProt P04629) (assay: In vitro TrkA inhibitory activity using TR-FRET assay). Settings: 5 ng TrkA [Upstate], 500 μM ATP, 30 min preincubation, values given as 'about', read-out: TrkA inhibition in-vitro IC50.
T1 construct: purchased Upstate, USA
Type: biochemical

By UniProt entry, the sequences of proteins in these tests, tags left out. Residues count along the entry.
UniProt P04629, 33-796: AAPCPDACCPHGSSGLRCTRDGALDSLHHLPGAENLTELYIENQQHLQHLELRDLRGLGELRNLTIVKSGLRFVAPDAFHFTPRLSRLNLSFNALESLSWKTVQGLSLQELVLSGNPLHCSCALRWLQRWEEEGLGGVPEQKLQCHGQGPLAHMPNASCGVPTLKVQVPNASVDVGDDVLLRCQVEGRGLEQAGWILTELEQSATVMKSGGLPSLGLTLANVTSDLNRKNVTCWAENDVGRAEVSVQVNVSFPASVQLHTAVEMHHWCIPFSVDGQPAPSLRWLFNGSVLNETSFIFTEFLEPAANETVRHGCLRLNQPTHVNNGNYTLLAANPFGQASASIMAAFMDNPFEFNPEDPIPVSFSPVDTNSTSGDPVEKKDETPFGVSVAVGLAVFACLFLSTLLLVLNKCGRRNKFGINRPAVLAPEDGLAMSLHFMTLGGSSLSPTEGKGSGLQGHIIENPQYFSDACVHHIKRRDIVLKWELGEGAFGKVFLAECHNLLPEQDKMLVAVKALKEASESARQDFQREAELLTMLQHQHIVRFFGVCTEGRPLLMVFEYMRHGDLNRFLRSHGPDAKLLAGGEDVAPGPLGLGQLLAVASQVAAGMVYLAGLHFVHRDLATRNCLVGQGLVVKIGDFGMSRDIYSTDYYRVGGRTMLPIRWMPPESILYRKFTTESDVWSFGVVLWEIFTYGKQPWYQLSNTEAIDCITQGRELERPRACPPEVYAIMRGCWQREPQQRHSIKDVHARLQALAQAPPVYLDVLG

Row | Compound | IC50
1 | CN1CC2CN(C(=O)c3cnn4ccc(N5CCC[C@@H]5c5cc(F)ccc5F)cc34)CC2C1 (stereo partly drawn) [Example-20, (5-((R)-2-(2,5-difluorophenyl)pyrrolidin-1-yl)pyrazolo[1,5-a]pyridin-3-yl)(5-methylhexahydropyrrolo[3,4-c]pyrrol-2(1H)-yl)methanone] | 1 to 10 µM
2 | O=C(O)C1CCN(C(=O)c2cnn3ccc(N4CCC[C@@H]4c4cc(F)ccc4F)cc23)C1 (stereo partly drawn) [Example-31, 1-(5-((R)-2-(2,5-difluorophenyl)pyrrolidin-1-yl)pyrazolo[1,5a]pyridine-3-carbonyl)pyrrolidine-3-carboxylic acid] | 1 to 10 µM
3 | O=C(c1cnn2ccc(N3CCC[C@@H]3c3cc(F)ccc3F)cc12)N1CCNCC1 [Example-38, (R)-(5-(2-(2,5-difluorophenyl)pyrrolidin-1-yl)pyrazolo[1,5-a]pyridin-3-yl)(piperazin-1-yl)methanone] | 1 to 10 µM
4 | NC1(C(=O)O)CCN(C(=O)c2cnn3ccc(N4CCC[C@@H]4c4cc(F)ccc4F)cc23)CC1 [Example-42, (R)-4-amino-1-(5-(2-(2,5-difluorophenyl)pyrrolidin-1-yl)pyrazolo[1,5a]pyridine-3-carbonyl)piperidine-4-carboxylic acid hydrochloride] | 1 to 10 µM
5 | O=C(c1cnn2ccc(N3CCC[C@@H]3c3cc(F)ccc3F)cc12)N1CCCC(O)CC1 (stereo partly drawn) [Example-45, (5-((R)-2-(2,5-difluorophenyl)pyrrolidin-1-yl)pyrazolo[1,5-a]pyridin-3-yl)(4-hydroxyazepan-1-yl)methanone] | 1 to 10 µM
6 | COC(=O)C1(NC(=O)c2cnn3ccc(N4CCC[C@@H]4c4cc(F)ccc4F)cc23)CCOCC1 [Example-47, (R)-Methyl 4-(5-(2-(2,5-difluorophenyl)pyrrolidin-1-yl)pyrazolo[1,5a]pyridine-3-carboxamido)tetrahydro-2H-pyran-4-carboxylate] | 1 to 10 µM
7 | CN(C)CCNC(=O)c1cnn2ccc(N3CCC[C@@H]3c3cc(F)ccc3F)cc12 [Example-55, (R)-5-(2-(2,5-difluorophenyl)pyrrolidin-1-yl)-N-(2-(dimethylamino)ethyl)pyrazolo[1,5a]pyridine-3-carboxamide] | 1 to 10 µM
8 | O=C(c1cnn2ccc(N3CCC[C@@H]3c3cc(F)ccc3F)cc12)N1CC2CN(Cc3ccccc3)CC2C1 (stereo partly drawn) [Example-59, (5-Benzylhexahydropyrrolo[3,4-c]pyrrol-2(1H)-yl)(5-((R)-2-(2,5-difluorophenyl)pyrrolidin-1-yl)pyrazolo[1,5a]pyridin-3-yl)methanone] | 1 to 10 µM
9 | O=C(N[C@H]1CCN(CCO)C1)c1cnn2ccc(N3CCC[C@@H]3c3cc(F)ccc3F)cc12 [Example-71, 5-((R)-2-(2,5-difluorophenyl)pyrrolidin-1-yl)-N-((S)-1-(2-hydroxyethyl)pyrrolidin-3-yl)pyrazolo[1,5-a]pyridine-3-carboxamide] | 1 to 10 µM
10 | O=C(c1cnn2ccc(N3CCC[C@@H]3c3cc(F)ccc3F)cc12)N1CCC[C@H](CO)C1 [Example-77, (5-((R)-2-(2,5-difluorophenyl)pyrrolidin-1-yl)pyrazolo[1,5a]pyridin-3-yl)((S)-3-(hydroxymethyl)piperidin-1-yl)methanone] | 1 to 10 µM
11 | O=C(c1cnn2ccc(N3CCC[C@@H]3c3cc(F)ccc3F)cc12)N1CCC(c2nnn[nH]2)CC1 [Example-103, (R)-(4-(1H-tetrazol-5-yl)piperidin-1-yl)(5-(2-(2,5-difluorophenyl)pyrrolidin-1-yl)pyrazolo[1,5-a]pyridin-3-yl)methanone] | 1 to 10 µM
12 | CN1CC[C@H](NC(=O)c2cnn3ccc(N4CCC[C@@H]4c4cc(F)ccc4F)cc23)C1 [Example-108, 5-((R)-2-(2,5-difluorophenyl)pyrrolidin-1-yl)-N-((S)-1-methylpyrrolidin-3-yl)pyrazolo[1,5-a]pyridine-3-carboxamide] | 1 to 10 µM
13 | O=C(c1cnn2ccc(N3CCC[C@@H]3c3cc(F)ccc3F)cc12)N1CCOCC1CO (stereo partly drawn) [Example-117, (5-((R)-2-(2,5-difluorophenyl)pyrrolidin-1-yl)pyrazolo[1,5-a]pyridin-3-yl)(3-(hydroxymethyl)morpholino)methanone] | 1 to 10 µM
14 | O=C(c1cnn2ccc(N3CCC[C@@H]3c3cc(F)ccc3F)cc12)N1CCOC(CO)C1 (stereo partly drawn) [Example-118, (5-((R)-2-(2,5-difluorophenyl)pyrrolidin-1-yl)pyrazolo[1,5-a]pyridin-3-yl)(2-(hydroxymethyl)morpholino) methanone] | 1 to 10 µM
15 | O=C(c1cnn2ccc(N3CCC[C@@H]3c3cc(F)ccc3F)cc12)N1CCC(N2CC[C@H](O)C2)CC1 [Example-120, (5-((R)-2-(2,5-difluorophenyl)pyrrolidin-1-yl)pyrazolo[1,5-a]pyridin-3-yl)(4-((S)-3-hydroxypyrrolidin-1-yl)piperidin-1-yl)methanone] | 1 to 10 µM
16 | O=C(c1cnn2ccc(N3CCC[C@@H]3c3cc(F)ccc3F)cc12)N1CCC(N2CC(O)C2)CC1 [Example-121, (R)-(5-(2-(2,5-difluorophenyl)pyrrolidin-1-yl)pyrazolo[1,5-a]pyridin-3-yl)(4-(3-hydroxyazetidin-1-yl)piperidin-1-yl)methanone] | 1 to 10 µM
17 | O=C(c1cnn2ccc(N3CCC[C@@H]3c3cc(F)ccc3F)cc12)N1CCC[C@@H](CN2CCCC2)C1 [Example-127, (5-((R)-2-(2,5-difluorophenyl)pyrrolidin-1-yl)pyrazolo[1,5-a]pyridin-3-yl)((S)-3-(pyrrolidin-1-ylmethyl)piperidin-1-yl)methanone] | 1 to 10 µM
18 | O=C(NCCN1CCC(O)C1)c1cnn2ccc(N3CCC[C@@H]3c3cc(F)ccc3F)cc12 (stereo partly drawn) [Example-134, 5-((R)-2-(2,5-difluorophenyl)pyrrolidin-1-yl)-N-(2-(3-hydroxypyrrolidin-1-yl)ethyl)pyrazolo[1,5-a]pyridine-3-carboxamide] | 1 to 10 µM
19 | Cc1cc(NC(=O)c2cnn3ccc(N4CCC[C@@H]4c4cc(F)ccc4F)cc23)n(C(C)(C)C)n1 [Example-223, (R)-N-(1-(tert-butyl)-3-methyl-1H-pyrazol-5-yl)-5-(2-(2,5-difluorophenyl)pyrrolidin-1-yl)pyrazolo[1,5-a]pyridine-3-carboxamide] | 1 to 10 µM
20 | O=C(c1cnn2ccc(N3CCC[C@@H]3c3cc(F)cc(OC(F)F)c3)cc12)N1CC[C@H](O)C1 [Example-271, (5-((R)-2-(3-(difluoromethoxy)-5-fluorophenyl)pyrrolidin-1-yl)pyrazolo[1,5-a]pyridin-3-yl)((S)-3-hydroxypyrrolidin-1-yl)methanone] | 1 to 10 µM

Source: patent US9289419B2, “Substituted heterocyclic compounds as tropomyosin receptor kinase a (TrkA) inhibitors” (Dr. Reddy's Laboratories Ltd., priority 2011, dated 2016)
